# Results as given in the supplement of paper PMC3334620.
# Over roughly 33,000 sequences, “E-score (-0.5 to 0.5)” has its median near -0.016; the highest 2% begin near 0.3. The list shows a part of the results.
# Biological target: T1, Yer184c (UniProt P39961)
# T1 sequence: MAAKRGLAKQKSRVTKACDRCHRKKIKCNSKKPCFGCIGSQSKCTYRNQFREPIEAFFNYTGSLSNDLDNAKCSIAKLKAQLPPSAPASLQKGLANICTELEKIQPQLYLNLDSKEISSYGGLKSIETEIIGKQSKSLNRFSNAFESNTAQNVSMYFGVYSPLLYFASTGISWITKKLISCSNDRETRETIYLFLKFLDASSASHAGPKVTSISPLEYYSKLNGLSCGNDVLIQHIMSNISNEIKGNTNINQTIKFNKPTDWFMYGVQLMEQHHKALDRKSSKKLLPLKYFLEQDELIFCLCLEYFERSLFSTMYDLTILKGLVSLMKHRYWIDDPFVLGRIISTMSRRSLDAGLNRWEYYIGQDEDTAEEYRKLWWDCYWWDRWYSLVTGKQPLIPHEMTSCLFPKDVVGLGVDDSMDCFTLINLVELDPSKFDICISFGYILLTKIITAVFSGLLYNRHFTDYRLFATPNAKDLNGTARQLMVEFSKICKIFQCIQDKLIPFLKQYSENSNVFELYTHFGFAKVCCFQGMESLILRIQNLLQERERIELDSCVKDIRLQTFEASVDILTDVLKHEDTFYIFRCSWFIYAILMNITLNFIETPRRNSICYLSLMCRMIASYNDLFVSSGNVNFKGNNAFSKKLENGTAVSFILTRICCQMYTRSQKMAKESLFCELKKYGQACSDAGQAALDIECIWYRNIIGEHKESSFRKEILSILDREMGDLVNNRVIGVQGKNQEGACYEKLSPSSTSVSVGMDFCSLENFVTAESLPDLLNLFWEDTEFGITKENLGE
# Assay: PBM E-score (8-mer binding enrichment) (E-score (-0.5 to 0.5)); higher = stronger / more preferred TF binding
# Conditions: protein concentration: 100 nM; construct: GST-full length
# Method in brief: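 PURExpress in vitro transcription/translation supplied GST-tagged yeast transcription factors, either full-length or DNA-binding domain. Applied at about 100-200 nM to universal all-10-mer Agilent arrays double-stranded by primer extension, the bound protein was detected with fluorescent anti-GST. E-scores, modified Wilcoxon-Mann-Whitney statistics, were given by the Universal PBM Analysis Suite to ungapped eight-base words pooled with their reverse complements after masliner normalisation.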
row,Sequence,PBM E-score
1,GGGCCTCA,-0.0388
2,GGAGCTTA,-0.0665
3,ACTTTATC,0.206
4,GGGATAAC,-0.0432
5,AAGACCCG,-0.0326
6,AATAGGCT,-0.0742
7,CAAATGCC,0.0727
8,CCGAGCGA,0.244
9,CAGCGCCC,-0.169
10,CTAATTGC,0.108
11,GGGTCTCA,-0.338
12,GTCGGCAA,0.263
13,CCTGTTGC,-0.214
14,ATCTTCCC,0.136
15,CCAAGATC,-0.0163
16,GTCAATCA,-0.189
17,AATGAGCC,-0.18
18,AAATGTCT,-0.105
19,GCCCGACA,0.0418
20,ACGATGAC,-0.00353
21,CGCGTCCG,0.00597
22,AACCGATG,0.0165
23,AACGGTGG,-0.174
24,CATAAGAG,-0.0493
25,AGAAGCTC,0.0486

# Some values from the list.
# Value of CGCGTCCG under PBM E-score: 0.00597
# Value of CTAATTGC under PBM E-score: 0.108
# Value of ATCTTCCC under PBM E-score: 0.136

# A stretch from the list above, as a working copy:
row,Sequence,PBM E-score
20,ACGATGAC,-0.00353
21,CGCGTCCG,0.00597
22,AACCGATG,0.0165
23,AACGGTGG,-0.174

# Remaining list, next part

row,Sequence,PBM E-score
1,AGAGAGGG,-0.257
2,CATGCAGC,-0.0238
3,GGAGTGCC,0.0423
4,AAAGCTGC,-0.0613
5,ACCGGGCA,0.0539
6,ATGCCTCG,0.0701
7,CGTCCGCA,0.00165
8,ACGTTTCC,-0.0446
9,GATGATTA,0.051
10,CGCTCCAA,-0.176
11,GTTCTAAA,0.169
12,CGGAGTTA,0.274
13,TCGAGGAA,-0.099
14,GCCTACAA,0.101
15,AACACTTG,-0.0973
16,CCCCGAGA,-0.123
17,ACTGCACG,-0.0551
18,CGCTCGTC,-0.25
19,CTAAAAGA,-0.0458
20,AATAACGC,-0.179
21,ATCCGATC,0.235
22,ACAACATC,0.117
23,TATATTGA,0.181
24,GCTTATCA,-0.102
25,AGTCTATC,-0.0599

row,Sequence,PBM E-score
1,CCCTTAAG,0.0295
2,GGTGAACC,0.034
3,CCCCGATA,-0.191
4,CTCGTGGC,-0.0488
5,AGTTAGAA,0.136
6,CCGGTGTA,0.181
7,CCTAAGTA,0.106
8,AACGGCCT,-0.0413
9,CACACTTA,0.121
10,GAGGAGTA,0.00964
11,GCAACGTA,-0.075
12,AGTGGCTG,-0.191
13,AGGCCTGA,-0.0729
14,ATCGAATG,-0.224
15,CTATGTAA,-0.0731
16,CGATCCAA,-0.0183
17,AGCACTAT,-0.183
18,TAGGTGGA,-0.12
19,CCATATAG,-0.148
20,GGATCATA,-0.187
21,AAATATAC,0.0721
22,CGACCAAA,0.216
23,CGTATGGA,0.0135
24,AACTAGTT,0.0195
25,GTTCTCCA,0.0609

row,Sequence,PBM E-score
1,ACTCGTAC,-0.11
2,GGCTAACA,0.107
3,ATACCGAC,0.0349
4,CCAACTGG,-0.0116
5,ATTAACTA,-0.113
6,ATATACCA,-0.0503
7,ATTAATGG,0.201
8,GCTGAGTA,-0.105
9,TACCACTA,-0.109
10,AAGAAACA,0.183
11,ACCAGTAT,-0.00962
12,GGGCACCC,-0.289
13,CAGGACAG,-0.0623
14,ATCAAATC,0.124
15,AATTGAGA,0.115
16,CCGATTAC,0.0738
17,GAGGCCAA,-0.0942
18,AGGGCAGG,-0.216
19,CGGGAGGA,0.188
20,GATGGCGA,0.0183
21,AGAATACA,0.0683
22,GTAGACCA,-0.306
23,AATATCGT,0.213
24,TGCTAACA,0.092
25,CGTTTCAA,0.196

row,Sequence,PBM E-score
1,ATTGGATA,0.0134
2,ACCTGGCA,-0.0663
3,ATCTTATG,0.0105
4,ACTGGGTA,-0.114
5,AAATTTCA,-0.147
6,GAGACATA,0.0248
7,CGATCACA,0.249
8,CCCTAATA,-0.0423
9,GCTGTTGA,0.0945
10,GCATTCAA,0.147
11,ACGATGAG,0.115
12,GTGTGCAA,-0.0158
13,CTACAGCA,-0.0036
14,CAATGACA,-0.0728
15,GAGACCAA,0.0375
16,AATTAAGA,0.139
17,GATCTTCA,0.19
18,ACTAAAAA,0.196
19,GCCTTTTA,-0.125
20,ACTCCCAA,-0.0252
21,CTCGAAAG,0.0981
22,CGTTCTAG,-0.00547
23,CTAGACAG,-0.0809
24,ACTAGTAC,0.0175
25,ATGGGACA,-0.226

row,Sequence,PBM E-score
1,GCACGGCC,0.136
2,ACTATGAT,0.0521
3,ACATTAGC,-0.119
4,CATTAGAA,0.145
5,ACTTACTC,-0.088
6,CGCCTCGC,-0.32
7,CGCCCGTA,-0.141
8,AGCTTGTC,0.111
9,ACCACGAG,-0.0103
10,ATTTATAG,-0.0174
11,AATGATCG,0.0585
12,CCACCCCA,-0.217
13,CGGACGCA,0.0336
14,ATATTACG,0.187
15,CATAAGTA,-0.0848
16,GAAATAAA,0.219
17,CGCCTGAG,-0.0391
18,ACACACCT,-0.00442
19,CGACCGCG,0.236
20,CAAACTGA,0.0606
21,AATGGTAA,0.0886
22,AAAACGCC,0.173
23,GAGGGCCA,-0.177
24,GCTATCTA,-0.0215
25,ACCTCTTC,0.00324

row,Sequence,PBM E-score
1,CTGTTGCA,0.0607
2,AGACTGGC,-0.223
3,GGCTTACC,-0.0572
4,AAAACACT,0.0868
5,CTTCACTC,-0.00654
6,CGTTAAGC,0.0647
7,CGGTATAA,0.208
8,AACAGATT,0.0578
9,CGGGTTTC,0.235
10,AAGCCGTG,0.137
11,AGGCCTAC,-0.151
12,CGGTTAAC,0.0718
13,ATATCCTG,-0.0574
14,CATCGTTA,-0.0914
15,GACCTCAC,-0.0799
16,TCCCAGCA,0.0666
17,CATTGTGG,-0.109
18,ATTCATTA,0.198
19,GAACGTAA,0.00769
20,CCCTAACA,0.187
21,AAGCTGTC,-0.206
22,GAGTCTGC,-0.232
